The values that follow come from US20140249045A1.

Sequences of proteins named here, by UniProt entry; tags and fusion partners are left off. A change or cut given only in a name is not applied to a line headed by its entry.
UniProt Q7L523: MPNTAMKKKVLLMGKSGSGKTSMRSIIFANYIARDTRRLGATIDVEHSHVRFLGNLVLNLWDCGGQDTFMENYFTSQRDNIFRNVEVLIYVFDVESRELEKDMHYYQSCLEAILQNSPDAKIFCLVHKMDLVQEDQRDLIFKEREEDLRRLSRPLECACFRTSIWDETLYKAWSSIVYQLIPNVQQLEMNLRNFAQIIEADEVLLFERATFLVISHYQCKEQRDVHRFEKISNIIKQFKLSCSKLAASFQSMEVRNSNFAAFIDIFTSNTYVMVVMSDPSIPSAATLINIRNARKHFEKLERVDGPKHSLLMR
UniProt Q9NQL2: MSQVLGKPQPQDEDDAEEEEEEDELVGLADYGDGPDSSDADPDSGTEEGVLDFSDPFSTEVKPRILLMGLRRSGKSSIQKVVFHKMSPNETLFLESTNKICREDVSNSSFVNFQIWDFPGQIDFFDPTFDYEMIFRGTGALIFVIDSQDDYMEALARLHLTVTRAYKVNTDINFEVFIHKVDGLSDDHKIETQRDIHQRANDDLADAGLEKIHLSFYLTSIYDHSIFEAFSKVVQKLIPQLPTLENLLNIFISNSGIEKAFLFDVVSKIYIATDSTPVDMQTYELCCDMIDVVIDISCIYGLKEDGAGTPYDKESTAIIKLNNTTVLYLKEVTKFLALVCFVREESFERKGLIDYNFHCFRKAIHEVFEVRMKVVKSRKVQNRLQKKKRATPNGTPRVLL
UniProt Q9P2J5: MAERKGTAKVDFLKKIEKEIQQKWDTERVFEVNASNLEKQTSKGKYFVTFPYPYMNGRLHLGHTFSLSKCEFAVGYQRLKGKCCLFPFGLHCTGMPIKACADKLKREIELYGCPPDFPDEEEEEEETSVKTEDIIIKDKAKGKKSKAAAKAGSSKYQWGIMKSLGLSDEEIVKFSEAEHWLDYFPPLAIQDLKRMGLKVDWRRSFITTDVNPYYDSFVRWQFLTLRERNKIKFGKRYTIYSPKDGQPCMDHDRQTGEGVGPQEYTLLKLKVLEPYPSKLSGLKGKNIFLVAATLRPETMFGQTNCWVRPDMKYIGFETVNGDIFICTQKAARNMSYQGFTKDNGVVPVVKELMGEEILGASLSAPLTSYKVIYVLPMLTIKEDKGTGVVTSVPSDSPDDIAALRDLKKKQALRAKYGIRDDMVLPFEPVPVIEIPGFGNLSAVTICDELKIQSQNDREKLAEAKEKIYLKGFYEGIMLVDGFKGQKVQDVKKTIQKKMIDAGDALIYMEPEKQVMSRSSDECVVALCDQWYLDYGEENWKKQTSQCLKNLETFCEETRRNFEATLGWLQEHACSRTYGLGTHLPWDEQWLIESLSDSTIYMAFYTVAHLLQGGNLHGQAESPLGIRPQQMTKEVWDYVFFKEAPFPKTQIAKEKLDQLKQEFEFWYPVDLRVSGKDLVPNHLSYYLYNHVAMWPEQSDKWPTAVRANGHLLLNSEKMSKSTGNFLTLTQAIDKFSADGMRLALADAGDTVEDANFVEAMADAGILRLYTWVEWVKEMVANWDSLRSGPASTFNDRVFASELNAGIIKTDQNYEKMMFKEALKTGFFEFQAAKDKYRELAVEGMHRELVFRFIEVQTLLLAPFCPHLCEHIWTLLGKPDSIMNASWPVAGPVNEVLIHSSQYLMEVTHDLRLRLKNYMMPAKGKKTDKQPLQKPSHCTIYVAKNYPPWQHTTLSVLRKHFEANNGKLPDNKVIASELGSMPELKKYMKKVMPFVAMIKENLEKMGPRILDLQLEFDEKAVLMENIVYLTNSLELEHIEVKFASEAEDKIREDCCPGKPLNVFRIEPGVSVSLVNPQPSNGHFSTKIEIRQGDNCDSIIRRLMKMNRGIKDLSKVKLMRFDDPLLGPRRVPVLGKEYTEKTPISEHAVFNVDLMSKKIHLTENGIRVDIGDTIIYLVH
UniProt Q8N122: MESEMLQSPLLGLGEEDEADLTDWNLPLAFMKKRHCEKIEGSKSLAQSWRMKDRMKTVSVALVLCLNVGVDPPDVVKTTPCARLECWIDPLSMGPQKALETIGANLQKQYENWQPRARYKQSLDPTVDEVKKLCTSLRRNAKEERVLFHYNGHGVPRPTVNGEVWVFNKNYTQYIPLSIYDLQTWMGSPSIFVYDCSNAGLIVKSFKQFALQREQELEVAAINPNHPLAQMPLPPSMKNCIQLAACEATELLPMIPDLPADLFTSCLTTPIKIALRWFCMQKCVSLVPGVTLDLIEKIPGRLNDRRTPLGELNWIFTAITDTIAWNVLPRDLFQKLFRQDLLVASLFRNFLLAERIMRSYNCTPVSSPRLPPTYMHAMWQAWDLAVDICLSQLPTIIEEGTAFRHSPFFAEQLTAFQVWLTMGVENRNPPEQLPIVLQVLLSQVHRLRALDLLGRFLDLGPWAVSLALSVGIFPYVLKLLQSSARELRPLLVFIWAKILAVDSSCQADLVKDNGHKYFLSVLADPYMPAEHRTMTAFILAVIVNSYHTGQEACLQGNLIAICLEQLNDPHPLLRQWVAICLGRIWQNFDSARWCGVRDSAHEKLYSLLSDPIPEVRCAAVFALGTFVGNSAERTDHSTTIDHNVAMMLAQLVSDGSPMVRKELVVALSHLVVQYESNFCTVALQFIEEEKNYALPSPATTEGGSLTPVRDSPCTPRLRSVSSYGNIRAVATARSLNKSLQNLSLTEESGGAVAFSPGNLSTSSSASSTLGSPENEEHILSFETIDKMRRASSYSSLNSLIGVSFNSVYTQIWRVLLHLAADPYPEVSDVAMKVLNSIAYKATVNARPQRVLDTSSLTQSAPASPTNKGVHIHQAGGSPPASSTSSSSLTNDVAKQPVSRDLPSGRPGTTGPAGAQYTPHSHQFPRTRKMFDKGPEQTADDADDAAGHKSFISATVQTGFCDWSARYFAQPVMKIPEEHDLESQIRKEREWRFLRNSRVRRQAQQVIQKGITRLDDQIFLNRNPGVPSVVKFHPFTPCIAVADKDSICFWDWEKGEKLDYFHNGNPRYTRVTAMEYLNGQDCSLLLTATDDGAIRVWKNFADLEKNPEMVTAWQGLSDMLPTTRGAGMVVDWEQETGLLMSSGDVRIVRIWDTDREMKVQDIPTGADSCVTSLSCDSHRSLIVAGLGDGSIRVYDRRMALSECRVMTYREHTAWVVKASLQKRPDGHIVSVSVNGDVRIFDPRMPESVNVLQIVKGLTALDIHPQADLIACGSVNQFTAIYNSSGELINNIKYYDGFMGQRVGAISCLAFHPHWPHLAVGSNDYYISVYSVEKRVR

No constants are given. Whether binding was seen depends on the method and setting. For part of these data: Binding seen in cells or lysates may run through a third protein. Some results given as binding are weak or reduced against the parent protein; the word gives no strength.

For assay [1], the target named is RagA/RagD heterodimer (UniProt Q7L523). Nature of the assay: co-immunoprecipitation with anti-myc antibody from 293T cells (FIG. 3d).
Assay [2] addresses RagB/RagD heterodimer (myc-RagD/HA-RagB) (UniProt Q9NQL2). The description is as above.
The target of assay [3] is RagA/RagD heterodimer (UniProt Q7L523). Nature of the assay: co-immunoprecipitation with anti-myc antibody from 293T cells (FIG. 6f).
The target of assay [4] is RagB/RagD heterodimer (myc-RagD/HA-RagB) (UniProt Q9NQL2). Briefly: co-immunoprecipitation with anti-myc antibody from 293T cells (FIG. 6g).
Assay [5] addresses RagA/RagD heterodimer (UniProt Q7L523). Briefly: co-immunoprecipitation with anti-myc antibody from 293T cells, anti-FLAG blot (FIG. 4b).
Assay [6] addresses HA-tagged RagD (UniProt Q9NQL2). Briefly: in vitro GST pull-down from transfected 293T extracts, anti-HA blot (FIG. 3a).
Assay [7] deals with endogenous RagD of 293T cells (UniProt Q9NQL2). Briefly: in vitro GST pull-down from 293T lysates with leucine, ATP, tRNA^Leu, anti-RagD blot (FIG. 10a).
The target of assay [8] is HA-tagged RagD (UniProt Q9NQL2). Nature of the assay: in vitro GST pull-down of HA-RagD lysate in the presence of GDPβS or GTPγS, anti-HA blot (FIG. 6c).
For assay [9] the target is unchanged. Briefly: in vitro GST pull-down of HA-RagD lysate, anti-HA blot (FIG. 3h).
The target is the same in assay [10]. Nature of the assay: in vitro GST pull-down of HA-RagD lysate, anti-HA blot (FIG. 3h; also told as data not shown in the same paragraph).
Assay [11] deals with myc-tagged LRS (wild type) (Homo sapiens (Human)) (UniProt Q9P2J5). Briefly: in vitro pull-down of myc-tagged LRS with GST-RagD fragments (FIG. 3f).
Assay [12] shares this target. Nature of the assay: co-immunoprecipitation with anti-HA antibody, anti-myc blot (FIG. 3c).
Assay [13] concerns the target RagB/RagD heterodimer (myc-RagD/HA-RagB) (UniProt Q9NQL2). Briefly: anti-myc immunoprecipitation from 293T cells expressing myc-RagD/HA-RagB, anti-LRS blot (FIG. 3e).
The target in assay [14] is endogenous Raptor of 293T cells (UniProt Q8N122). Briefly: immunoprecipitation with anti-Raptor antibody from 293T cells with control or LRS siRNA, anti-RagD blot (FIG. 4d).
For assay [15], the target named is endogenous RagD of 293T cells (UniProt Q9NQL2). Nature of the assay: immunoprecipitation of 293T lysates with anti-Raptor antibody, anti-RagD blot (FIG. 4a).
Assay [16] has as its target HA-tagged RagD (UniProt Q9NQL2). Nature of the assay: co-immunoprecipitation with anti-HA antibody from 293T cells, anti-myc blot (FIG. 3b).
Assay [17] has the same target. Nature of the assay: co-immunoprecipitation with anti-HA antibody, anti-myc blot (FIG. 10d).
Assay [18] concerns the target RagB/RagD heterodimer (HA-RagD/myc-RagB) (UniProt Q9NQL2). Briefly: co-immunoprecipitation with anti-HA antibody, anti-myc blot (FIG. 3i).
For assay [19], the target named is GST-LRS (purified GST-fused leucyl-tRNA synthetase) (Homo sapiens (Human)) (UniProt Q9P2J5). Briefly: in vitro GST-LRS pull-down of myc-RagD lysates, anti-myc blot (FIG. 6d).
In assay [20] the target is FLAG-tagged LRS (Homo sapiens (Human)) (UniProt Q9P2J5). Nature of the assay: co-immunoprecipitation of FLAG-LRS with myc-RagD from 293T cells (FIG. 6e).
Assay [21] shares this target. Briefly: recap of the co-immunoprecipitations of FIGS. 6e-6g.
Assay [22] has the same target. Nature of the assay: co-immunoprecipitation with anti-myc antibody from 293T cells co-expressing Rag heterodimers (FIGS. 6f and 6g).

With “FLAG-tagged LRS (from UniProt Q9P2J5 1-1176) (enzyme)”, the binding result (in the assay with RagA/RagD heterodimer [1]; in assay [2]; in the assay with RagA/RagD heterodimer [3]; in assay [4]; with RagA/RagD heterodimer [5]) was “binds” in each case. Regarding “GST-LRS (purified GST-fused leucyl-tRNA synthetase) (from UniProt Q9P2J5 1-1176) (enzyme)”, the binding result (in the assay with HA-tagged RagD [6]; in assay [7]; in the assay with HA-tagged RagD [8]) was “binds” in each case. In the case of “GST-LRS fragment 759-1120 (from UniProt Q9P2J5 759-1120) (enzyme)”, the binding result in the assay with HA-tagged RagD [9] was “binds”. The same measure, in the same setting: the entry for “GST-LRS fragment 759-1176 (from UniProt Q9P2J5 759-1176) (enzyme)” is “binds”. Take “GST-LRS fragment 951-1176 (from UniProt Q9P2J5 951-1176) (enzyme)”: the binding entry with HA-tagged RagD [10] was “binds”. Take “GST-RagD (RagD-(1-400)) (from UniProt Q9NQL2 1-400) (enzyme)”: the binding entry in assay [11] is “binds”. As for “GST-RagD fragment 230-400 (from UniProt Q9NQL2 230-400) (enzyme)”, the binding result in assay [11] is given as “binds”.

As for “HA-tagged RagD (from UniProt Q9NQL2 1-400) (enzyme)”, in [12], the binding entry was “binds”. Take “endogenous LRS of 293T cells (from UniProt Q9P2J5 1-1176) (enzyme)”: the binding result in assay [13] is recorded as “binds”. As for “endogenous RagD of 293T cells (from UniProt Q9NQL2 1-400) (enzyme)”, the binding result in [14] is given as “binds”.

In the case of “endogenous Raptor of 293T cells (from UniProt Q8N122 1-1335)”, the binding result in assay [15] is “binds”.

In the case of “myc-tagged LRS (wild type) (from UniProt Q9P2J5 1-1176) (enzyme)”, in the assay with HA-tagged RagD [16], the binding entry is “binds”. “myc-tagged LRS K716A/K719A (from UniProt Q9P2J5 1-1176) (enzyme)”: the binding result in the assay with HA-tagged RagD [17] is reported as “binds”. Turning to “myc-tagged LRS R956A/K957A (from UniProt Q9P2J5 1-1176) (enzyme)”, the binding entry in assay [18] is listed as “binds”.

Regarding “myc-tagged LRS S953A/V954A (from UniProt Q9P2J5 1-1176) (enzyme)”, in assay [18], the binding result is on record as “binds”. Turning to “myc-tagged RagD (wild type) (from UniProt Q9NQL2 1-400) (enzyme)”, the binding result in assay [19] and in [20] was “binds” throughout.

With “myc-tagged RagD Q121L (GTP-bound form) (from UniProt Q9NQL2 1-400) (enzyme)”, the binding entry in assay [21], in [19], in assay [20] and in [22] was “binds” in each case.
